The values below come from patent publication US8211931B2, “Active compound combinations having insecticidal and acaricidal properties” (Bayer Cropscience AG, priority 2006, dated 2012).

SMILES strings stand for the structures.

The test system of this data set is Anthocoris nemoralis. Description: Field test on pear trees, number of the beneficial species. The conditions noted are these: 14 d. The class given is in vivo.

Regarding `Cc1ccc(/N=C/N(C)/C=N/c2ccc(C)cc2C)c(C)c1` [Amitraz, reference compound], the “Number of Anthocoris nemoralis” value (400 g/ha/m crown height, UL 400) stood at 5. Consider `CCOC(=O)OC1=C(c2cc(C)ccc2C)C(=O)N[C@]12CC[C@@H](OC)CC2` [Ex. I-4′], for which the “Number of Anthocoris nemoralis” value (75 g/ha/m crown height, 100 OD) amounted to 12.
